Source: the supplement of paper PMC10849652
The other results are listed elsewhere or left out.

By UniProt entry, the sequences of proteins in these tests, tags left out. Where a name states a change or a piece, a line headed by the entry shows the natural chain unless it says otherwise.
UniProt Q6IQ49: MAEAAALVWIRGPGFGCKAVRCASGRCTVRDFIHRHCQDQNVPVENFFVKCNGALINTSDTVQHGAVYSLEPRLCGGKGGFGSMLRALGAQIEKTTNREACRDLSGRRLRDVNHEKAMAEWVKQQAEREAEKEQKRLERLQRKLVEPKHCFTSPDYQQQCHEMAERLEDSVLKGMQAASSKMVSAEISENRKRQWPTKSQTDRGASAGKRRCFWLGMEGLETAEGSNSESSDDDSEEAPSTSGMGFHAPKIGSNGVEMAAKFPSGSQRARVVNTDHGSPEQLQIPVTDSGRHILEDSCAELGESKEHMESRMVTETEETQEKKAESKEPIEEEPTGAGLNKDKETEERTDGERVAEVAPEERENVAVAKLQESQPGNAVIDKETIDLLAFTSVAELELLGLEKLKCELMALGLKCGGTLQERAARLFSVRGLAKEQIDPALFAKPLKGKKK
UniProt Q0VDG4: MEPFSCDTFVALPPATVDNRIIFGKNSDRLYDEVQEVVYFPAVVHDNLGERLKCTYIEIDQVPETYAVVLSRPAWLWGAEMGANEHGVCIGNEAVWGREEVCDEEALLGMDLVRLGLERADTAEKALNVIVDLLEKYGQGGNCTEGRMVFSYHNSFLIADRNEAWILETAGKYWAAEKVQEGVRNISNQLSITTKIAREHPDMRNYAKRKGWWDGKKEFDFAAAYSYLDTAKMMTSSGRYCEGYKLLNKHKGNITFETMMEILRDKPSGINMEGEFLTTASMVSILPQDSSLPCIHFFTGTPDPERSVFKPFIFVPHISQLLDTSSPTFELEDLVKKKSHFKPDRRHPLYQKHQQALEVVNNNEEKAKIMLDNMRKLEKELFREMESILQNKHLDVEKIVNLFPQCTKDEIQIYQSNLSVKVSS
UniProt Q9Y3Z3: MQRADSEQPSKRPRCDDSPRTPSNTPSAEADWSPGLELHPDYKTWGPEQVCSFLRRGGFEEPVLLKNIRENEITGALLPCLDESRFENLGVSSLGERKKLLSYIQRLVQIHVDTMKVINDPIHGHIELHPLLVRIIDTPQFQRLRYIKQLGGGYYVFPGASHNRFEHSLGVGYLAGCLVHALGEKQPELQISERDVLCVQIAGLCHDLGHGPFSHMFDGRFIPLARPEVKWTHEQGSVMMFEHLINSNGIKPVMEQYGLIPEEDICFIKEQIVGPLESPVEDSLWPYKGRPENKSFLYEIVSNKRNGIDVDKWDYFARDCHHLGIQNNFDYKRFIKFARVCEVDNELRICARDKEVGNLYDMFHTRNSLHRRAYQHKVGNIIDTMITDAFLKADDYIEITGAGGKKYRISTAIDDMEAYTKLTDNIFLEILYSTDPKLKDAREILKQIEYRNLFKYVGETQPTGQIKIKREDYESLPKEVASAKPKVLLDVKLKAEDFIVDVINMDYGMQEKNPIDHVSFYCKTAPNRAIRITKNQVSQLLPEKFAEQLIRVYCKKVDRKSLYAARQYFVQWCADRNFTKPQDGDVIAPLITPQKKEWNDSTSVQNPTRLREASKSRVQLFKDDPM
UniProt Q9Y6B6: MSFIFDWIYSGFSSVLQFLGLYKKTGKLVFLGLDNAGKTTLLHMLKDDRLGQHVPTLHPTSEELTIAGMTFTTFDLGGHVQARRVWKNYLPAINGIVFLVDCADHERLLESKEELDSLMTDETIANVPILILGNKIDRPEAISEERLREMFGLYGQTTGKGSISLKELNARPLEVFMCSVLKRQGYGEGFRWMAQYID
UniProt O95197: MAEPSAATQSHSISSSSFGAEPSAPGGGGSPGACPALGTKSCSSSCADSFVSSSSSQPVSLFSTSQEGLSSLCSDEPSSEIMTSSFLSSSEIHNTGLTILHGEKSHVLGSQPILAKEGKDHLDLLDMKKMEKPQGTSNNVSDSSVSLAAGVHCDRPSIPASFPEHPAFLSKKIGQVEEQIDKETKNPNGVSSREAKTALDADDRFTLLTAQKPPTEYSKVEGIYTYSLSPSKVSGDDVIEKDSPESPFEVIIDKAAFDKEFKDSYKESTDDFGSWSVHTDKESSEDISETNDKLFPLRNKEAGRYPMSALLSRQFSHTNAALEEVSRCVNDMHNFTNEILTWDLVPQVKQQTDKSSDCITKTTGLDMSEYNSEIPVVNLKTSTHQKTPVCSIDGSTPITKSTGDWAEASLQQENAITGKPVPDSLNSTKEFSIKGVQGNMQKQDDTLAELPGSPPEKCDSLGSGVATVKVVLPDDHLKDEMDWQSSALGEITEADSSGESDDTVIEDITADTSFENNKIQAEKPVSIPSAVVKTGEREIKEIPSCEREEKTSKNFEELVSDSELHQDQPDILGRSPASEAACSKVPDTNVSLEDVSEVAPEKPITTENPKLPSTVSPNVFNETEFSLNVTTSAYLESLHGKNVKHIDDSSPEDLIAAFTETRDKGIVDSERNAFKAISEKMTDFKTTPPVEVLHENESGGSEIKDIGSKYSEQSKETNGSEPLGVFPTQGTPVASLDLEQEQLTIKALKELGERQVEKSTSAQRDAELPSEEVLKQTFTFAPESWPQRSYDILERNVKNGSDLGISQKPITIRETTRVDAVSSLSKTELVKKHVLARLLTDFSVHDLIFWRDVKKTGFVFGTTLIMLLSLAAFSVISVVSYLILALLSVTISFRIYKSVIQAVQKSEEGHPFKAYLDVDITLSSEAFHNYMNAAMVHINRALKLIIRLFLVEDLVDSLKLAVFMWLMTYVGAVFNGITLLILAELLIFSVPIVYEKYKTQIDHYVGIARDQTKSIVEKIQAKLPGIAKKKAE
UniProt Q96FV2: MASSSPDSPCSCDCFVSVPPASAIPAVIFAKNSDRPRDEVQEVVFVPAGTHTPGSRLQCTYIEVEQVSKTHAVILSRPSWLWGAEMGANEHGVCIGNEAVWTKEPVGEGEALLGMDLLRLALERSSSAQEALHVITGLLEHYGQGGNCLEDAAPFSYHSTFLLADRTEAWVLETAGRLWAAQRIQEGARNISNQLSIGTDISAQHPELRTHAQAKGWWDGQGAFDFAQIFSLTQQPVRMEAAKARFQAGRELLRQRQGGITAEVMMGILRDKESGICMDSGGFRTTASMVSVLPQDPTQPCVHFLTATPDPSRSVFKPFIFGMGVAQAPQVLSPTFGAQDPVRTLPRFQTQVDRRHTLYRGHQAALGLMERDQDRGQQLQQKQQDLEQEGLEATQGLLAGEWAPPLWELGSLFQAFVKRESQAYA
UniProt Q6P3W7: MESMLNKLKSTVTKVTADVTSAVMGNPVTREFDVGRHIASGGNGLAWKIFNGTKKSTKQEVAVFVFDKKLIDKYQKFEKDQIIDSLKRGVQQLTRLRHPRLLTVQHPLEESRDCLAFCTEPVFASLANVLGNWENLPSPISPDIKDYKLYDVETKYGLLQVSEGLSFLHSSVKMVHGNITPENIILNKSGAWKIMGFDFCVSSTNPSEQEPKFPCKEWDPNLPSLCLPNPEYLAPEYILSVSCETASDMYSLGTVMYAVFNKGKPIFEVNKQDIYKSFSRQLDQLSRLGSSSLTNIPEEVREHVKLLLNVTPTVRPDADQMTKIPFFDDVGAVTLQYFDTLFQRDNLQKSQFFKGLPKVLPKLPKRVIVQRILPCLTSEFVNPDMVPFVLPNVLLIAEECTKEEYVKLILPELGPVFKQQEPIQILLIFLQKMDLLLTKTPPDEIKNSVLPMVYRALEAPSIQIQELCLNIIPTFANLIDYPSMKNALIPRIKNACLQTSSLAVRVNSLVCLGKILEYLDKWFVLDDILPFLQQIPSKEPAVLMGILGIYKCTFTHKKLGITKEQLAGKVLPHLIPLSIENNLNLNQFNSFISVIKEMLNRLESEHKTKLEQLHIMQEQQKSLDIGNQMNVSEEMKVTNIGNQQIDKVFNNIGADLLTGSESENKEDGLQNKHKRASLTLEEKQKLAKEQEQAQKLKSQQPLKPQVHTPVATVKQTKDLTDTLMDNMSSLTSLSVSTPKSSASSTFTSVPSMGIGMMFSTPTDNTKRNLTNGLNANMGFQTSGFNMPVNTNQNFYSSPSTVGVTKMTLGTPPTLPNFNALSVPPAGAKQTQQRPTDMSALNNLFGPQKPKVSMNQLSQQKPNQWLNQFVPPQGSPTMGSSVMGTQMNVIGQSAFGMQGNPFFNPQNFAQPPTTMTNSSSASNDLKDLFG
UniProt Q9NRP4: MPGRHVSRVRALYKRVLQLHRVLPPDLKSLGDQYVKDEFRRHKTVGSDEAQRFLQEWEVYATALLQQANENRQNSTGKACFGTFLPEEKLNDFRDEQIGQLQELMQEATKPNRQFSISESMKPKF
UniProt Q9HCN8: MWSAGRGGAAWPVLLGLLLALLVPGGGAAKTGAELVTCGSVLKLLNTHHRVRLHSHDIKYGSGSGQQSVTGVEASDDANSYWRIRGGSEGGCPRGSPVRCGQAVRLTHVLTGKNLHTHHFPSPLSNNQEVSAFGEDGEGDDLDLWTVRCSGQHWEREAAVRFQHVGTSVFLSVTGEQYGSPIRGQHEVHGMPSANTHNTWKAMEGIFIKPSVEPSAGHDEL
UniProt Q7L099: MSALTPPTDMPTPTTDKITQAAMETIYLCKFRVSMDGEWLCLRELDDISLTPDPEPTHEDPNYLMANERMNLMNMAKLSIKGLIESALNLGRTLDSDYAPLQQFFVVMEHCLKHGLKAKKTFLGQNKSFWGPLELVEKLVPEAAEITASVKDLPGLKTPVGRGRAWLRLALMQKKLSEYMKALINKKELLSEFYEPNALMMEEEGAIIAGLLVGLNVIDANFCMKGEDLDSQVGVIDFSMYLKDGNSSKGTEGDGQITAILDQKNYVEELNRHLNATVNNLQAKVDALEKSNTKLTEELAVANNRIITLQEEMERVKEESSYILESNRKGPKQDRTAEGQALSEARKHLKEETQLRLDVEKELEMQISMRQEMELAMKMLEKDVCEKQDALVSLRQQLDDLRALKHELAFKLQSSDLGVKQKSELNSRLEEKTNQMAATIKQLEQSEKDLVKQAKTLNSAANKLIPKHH
UniProt Q86SQ7: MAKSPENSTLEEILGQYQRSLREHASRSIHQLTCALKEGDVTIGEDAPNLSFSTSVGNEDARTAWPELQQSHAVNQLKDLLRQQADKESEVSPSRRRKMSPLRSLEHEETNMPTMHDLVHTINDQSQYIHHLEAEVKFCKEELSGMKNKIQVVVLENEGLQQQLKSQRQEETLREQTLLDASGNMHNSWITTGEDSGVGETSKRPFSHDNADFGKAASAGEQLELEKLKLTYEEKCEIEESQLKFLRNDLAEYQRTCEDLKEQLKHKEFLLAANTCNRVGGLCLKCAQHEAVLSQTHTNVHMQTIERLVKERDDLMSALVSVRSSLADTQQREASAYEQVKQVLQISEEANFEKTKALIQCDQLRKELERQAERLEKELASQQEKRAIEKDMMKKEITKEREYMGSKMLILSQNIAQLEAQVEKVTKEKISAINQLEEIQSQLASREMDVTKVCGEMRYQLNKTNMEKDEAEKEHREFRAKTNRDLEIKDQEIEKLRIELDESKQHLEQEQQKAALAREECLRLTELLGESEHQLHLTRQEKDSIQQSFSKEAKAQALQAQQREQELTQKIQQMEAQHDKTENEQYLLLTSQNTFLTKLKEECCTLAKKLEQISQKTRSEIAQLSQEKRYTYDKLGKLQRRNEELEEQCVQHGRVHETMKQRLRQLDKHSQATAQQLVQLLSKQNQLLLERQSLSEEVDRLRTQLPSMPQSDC
UniProt Q9Y3A4: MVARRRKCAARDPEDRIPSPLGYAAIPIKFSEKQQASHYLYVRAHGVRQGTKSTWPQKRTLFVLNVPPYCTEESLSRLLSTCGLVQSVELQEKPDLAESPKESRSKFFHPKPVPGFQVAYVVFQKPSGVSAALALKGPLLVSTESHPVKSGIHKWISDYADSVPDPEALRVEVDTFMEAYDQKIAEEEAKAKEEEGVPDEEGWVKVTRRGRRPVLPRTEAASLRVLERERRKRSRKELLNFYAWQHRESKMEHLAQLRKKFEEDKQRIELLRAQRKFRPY
UniProt O95969: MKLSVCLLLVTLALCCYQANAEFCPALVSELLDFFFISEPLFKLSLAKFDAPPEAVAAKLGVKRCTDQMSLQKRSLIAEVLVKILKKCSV
UniProt Q9Y3I0: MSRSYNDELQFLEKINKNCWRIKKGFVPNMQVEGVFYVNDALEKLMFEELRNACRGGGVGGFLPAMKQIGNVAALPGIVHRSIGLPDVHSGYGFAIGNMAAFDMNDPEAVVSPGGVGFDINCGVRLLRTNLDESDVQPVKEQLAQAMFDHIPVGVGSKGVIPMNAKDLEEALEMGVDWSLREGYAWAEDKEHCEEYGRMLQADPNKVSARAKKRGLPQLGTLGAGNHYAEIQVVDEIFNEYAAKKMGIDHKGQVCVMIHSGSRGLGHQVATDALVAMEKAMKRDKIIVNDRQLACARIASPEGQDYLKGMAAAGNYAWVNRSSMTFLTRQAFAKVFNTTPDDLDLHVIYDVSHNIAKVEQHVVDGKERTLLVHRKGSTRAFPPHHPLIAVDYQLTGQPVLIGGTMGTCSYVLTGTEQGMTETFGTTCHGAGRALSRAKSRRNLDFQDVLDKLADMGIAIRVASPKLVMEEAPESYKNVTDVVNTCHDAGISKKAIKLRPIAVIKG

Legend:
Assay in all cases: log2 fold change, soluble protein after heating vs DMSO (PISA); higher = thermal stabilisation; K562 cells, 10 uM, 30 min; active = over 0.2 and 3.5 SD of the protein, either way, in both replicates (recomputed)
[1] = compound: NC(=O)Nc1cc(-c2cccc(F)c2)sc1C(=O)N[C@H]1CCCNC1
Method in brief: (§1)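 Values are thermal stability changes relative to control samples and are taken from duplicates. They are stated as log2 fold changes. Before quantification by TMTpro 16plex LC-MS/MS with equalised channel sums, K562 cells at 2×10^6 cells/mL were treated with 10 μM compound for 30 min, heated in aliquots for 3 min across 48°C-58°C, pooled, extracted in PBS with 0.5% NP-40 at 4°C, and centrifuged at 21,000xg for 90 min to give the soluble supernatant.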

[2] = compound: NC(=O)c1cnc(N[C@@H]2CCCC[C@@H]2N)nc1Nc1cccc(-n2nccn2)c1
Method in brief: as §1

[3] = compound: NC1(c2ccc(-c3nc4ccn5c(=O)[nH]nc5c4cc3-c3ccccc3)cc2)CCC1
Method in brief: as §1

[4] = compound: NCC(=O)Nc1ccc(-n2nc(C(F)(F)F)cc2-c2ccc3c(ccc4ccccc43)c2)cc1
Method in brief: as §1

entinostat = compound: Nc1ccccc1NC(=O)c1ccc(CNC(=O)OCc2cccnc2)cc1 [entinostat]
Method in brief: as §1

vorinostat = compound: O=C(CCCCCCC(=O)Nc1ccccc1)NO [vorinostat]
Method in brief: as §1

citarinostat = compound: O=C(CCCCCCNC(=O)c1cnc(N(c2ccccc2)c2ccccc2Cl)nc1)NO [citarinostat]
Method in brief: as §1

silmitasertib = compound: O=C(O)c1ccc2c(c1)nc(Nc1cccc(Cl)c1)c1ccncc12 [silmitasertib]
Method in brief: as §1

[5] = compound: O=C1NC(=O)C(c2cnc3ccccn23)=C1c1cn2c3c(cc(F)cc13)CN(C(=O)N1CCCCC1)CC2
Method in brief: as §1

[6] = compound: c1cc(OCCN2CCCCC2)cc(-c2n[nH]c3ccc(-c4nnc[nH]4)cc23)c1
Method in brief: as §1

entospletinib = compound: c1cn2cc(-c3ccc4cn[nH]c4c3)nc(Nc3ccc(N4CCOCC4)cc3)c2n1 [entospletinib]
Method in brief: as §1

Measured: log2 fold change

SDHA (UniProt P31040)
inactive: [1] 0.047 | [2] -0.034 | [3] -0.015 | [4] 0.028 | entinostat 0.008 | vorinostat -0.01 | citarinostat 0.068 | silmitasertib -0.033 | [5] -0.024 | [6] 0.03 | entospletinib -0.039

SDE2 (UniProt Q6IQ49)
inactive: [1] -0.029 | [2] -0.061 | [3] -0.032 | [4] -0.046 | entinostat 0.005 | vorinostat 0.018 | citarinostat 0.077 | silmitasertib 0.014 | [5] -0.062 | [6] 0.048 | entospletinib 0.028

SCRN3 (UniProt Q0VDG4)
inactive: [1] 0.009 | [2] 0.004 | [3] -0.098 | [4] -0.015 | entinostat 0.004 | vorinostat 0.017 | citarinostat -0.003 | silmitasertib 0.011 | [5] 0.008 | [6] 0.034 | entospletinib 0.015

SAMHD1 (UniProt Q9Y3Z3)
inactive: [1] -0.01 | [2] -0.017 | [3] -0.033 | [4] 0.028 | entinostat -0.004 | vorinostat 0.055 | citarinostat 0.003 | silmitasertib -0.018 | [5] -0.029 | [6] 0.011 | entospletinib -0.108

SAR1B (UniProt Q9Y6B6)
inactive: [1] -0.012 | [2] -0.032 | [3] -0.108 | [4] -0.041 | entinostat 0.011 | vorinostat 0.002 | citarinostat 0.037 | silmitasertib 0.005 | [5] -0.046 | [6] -0.033 | entospletinib -0.001

RSBN1 (UniProt Q5VWQ0)
inactive: [1] 0.074 | [2] 0.019 | [3] 0.169 | [4] 0.085 | entinostat -0.036 | vorinostat -0.04 | citarinostat -0.019 | silmitasertib 0.15 | [5] 0.263 | [6] -0.123 | entospletinib -0.003

RTN3 (UniProt O95197)
inactive: [1] 0.003 | [2] -0.044 | [3] -0.019 | [4] -0.003 | entinostat -0.012 | vorinostat -0.042 | citarinostat -0.023 | silmitasertib 0.013 | [5] -0.015 | [6] -0.008 | entospletinib -0.055

SCRN2 (UniProt Q96FV2)
inactive: [1] -0.052 | [2] 0.044 | [3] -0.09 | [4] -0.069 | entinostat -0.016 | vorinostat -0.009 | citarinostat 0.042 | silmitasertib -0.003 | [5] -0.029 | [6] 0.01 | entospletinib -0.069

SCLY (UniProt Q96I15)
inactive: [1] 0.058 | [2] -0.01 | [3] 0.045 | [4] 0.013 | entinostat -0.016 | vorinostat -0.041 | citarinostat -0.018 | silmitasertib -0.017 | [5] 0 | [6] 0.167 | entospletinib -0.039

SCYL2 (UniProt Q6P3W7)
inactive: [1] 0.003 | [2] -0.038 | [3] -0.068 | [4] -0.096 | entinostat 0.009 | vorinostat 0.011 | citarinostat 0.04 | silmitasertib -0.004 | [5] -0.007 | [6] -0.024 | entospletinib -0.024

SEC11C (UniProt Q9BY50)
inactive: [1] 0.003 | [2] -0.023 | [3] -0.161 | [4] -0.061 | entinostat 0.089 | vorinostat 0.003 | citarinostat 0.012 | silmitasertib -0.003 | [5] -0.028 | [6] -0.027 | entospletinib -0.077

SCFD1 (UniProt Q8WVM8)
inactive: [1] 0.047 | [2] -0.038 | [3] -0.06 | [4] -0.064 | entinostat 0.017 | vorinostat 0.043 | citarinostat 0.049 | silmitasertib -0.008 | [5] 0.002 | [6] -0.034 | entospletinib -0.015

SDHAF3 (UniProt Q9NRP4)
inactive: [1] -0.012 | [2] -0.064 | [3] -0.098 | [4] 0.024 | entinostat 0.027 | vorinostat 0.024 | citarinostat 0.025 | silmitasertib 0.107 | [5] -0.021 | [6] -0.099 | entospletinib 0.056

SDF2L1 (UniProt Q9HCN8)
inactive: [1] -0.025 | [2] -0.066 | [3] 0.002 | [4] 0.013 | entinostat -0.007 | vorinostat 0.028 | citarinostat -0.007 | silmitasertib 0.041 | [5] -0.003 | [6] -0.08 | entospletinib 0.016

SEC24C (UniProt P53992)
inactive: [1] -0.067 | [2] -0.01 | [3] -0.099 | [4] -0.048 | entinostat 0.043 | vorinostat 0.043 | citarinostat 0.059 | silmitasertib 0.053 | [5] -0.058 | [6] 0.015 | entospletinib 0

SAE1 (UniProt Q9UBE0)
inactive: [1] -0.018 | [2] -0.094 | [3] -0.041 | [4] -0.031 | entinostat 0.019 | vorinostat 0 | citarinostat 0.041 | silmitasertib 0.038 | [5] -0.065 | [6] -0.001 | entospletinib 0.026

RUFY3 isoform 3 (UniProt Q7L099)
inactive: [1] -0.032 | [2] -0.022 | [3] -0.05 | [4] -0.014 | entinostat 0.143 | vorinostat 0.071 | citarinostat 0.089 | silmitasertib 0.1 | [6] 0.013

RSL24D1 (UniProt Q9UHA3)
inactive: [1] 0.063 | [2] 0.112 | [3] 0.377 | [4] 0.197 | entinostat -0.126 | citarinostat -0.085 | silmitasertib 0.274 | [5] 0.248 | [6] -0.339 | entospletinib 0.122

S100A6 (UniProt P06703)
inactive: [1] 0.053 | [2] -0.006 | [3] -0.043 | entinostat 0.064 | vorinostat -0.042 | citarinostat 0.022 | silmitasertib 0 | [5] -0.185 | [6] -0.04 | entospletinib -0.081

SBF1 isoform 4 (UniProt O95248)
inactive: [1] -0.006 | [2] 0.078 | [3] -0.017 | [4] 0.043 | entinostat -0.03 | vorinostat 0.041 | citarinostat 0 | silmitasertib -0.012 | [5] 0.062 | [6] -0.391 | entospletinib 0.121

SDCCAG8 (UniProt Q86SQ7)
inactive: [1] 0.108 | [2] 0.004 | [4] -0.185 | entinostat 0.138 | vorinostat 0.233 | citarinostat 0.007 | [6] -0.12 | entospletinib 0.054

SCAMP1 (UniProt O15126)
inactive: [1] -0.032 | [2] -0.013 | [3] -0.022 | [4] -0.065 | entinostat -0.037 | vorinostat 0.005 | citarinostat -0.016 | silmitasertib 0.038 | [5] -0.056 | [6] -0.051 | entospletinib 0.02

RRP7A (UniProt Q9Y3A4)
inactive: [1] -0.031 | [2] -0.02 | [3] 0.241 | [4] -0.026 | entinostat -0.005 | citarinostat -0.129 | silmitasertib 0.124 | [5] 0.201 | [6] -0.048 | entospletinib 0.079

2 entries drawn at random from the list so far, as already listed:
SDCCAG8 (UniProt Q86SQ7)
inactive: [1] 0.108 | [2] 0.004 | [4] -0.185 | entinostat 0.138 | vorinostat 0.233 | citarinostat 0.007 | [6] -0.12 | entospletinib 0.054

SBF1 isoform 4 (UniProt O95248)
inactive: [1] -0.006 | [2] 0.078 | [3] -0.017 | [4] 0.043 | entinostat -0.03 | vorinostat 0.041 | citarinostat 0 | silmitasertib -0.012 | [5] 0.062 | [6] -0.391 | entospletinib 0.121

Further results follow.

SASS6 (UniProt Q6UVJ0)
inactive: [1] -0.008 | [2] 0.052 | [3] -0.447 | [4] -0.154 | entinostat 0.068 | vorinostat 0.098 | silmitasertib 0.228 | [5] 0.042

SARAF (UniProt Q96BY9)
inactive: [1] -0.065 | [2] -0.098 | [4] -0.052 | entinostat 0.077 | vorinostat 0.027 | citarinostat 0.18 | [5] 0.058 | [6] 0.007 | entospletinib 0.055

SCGB1D2 (UniProt O95969)
inactive: [1] 1.25 | [2] 0.359 | [3] -0.027 | [4] 0.159 | entinostat 0.463 | citarinostat -0.084 | silmitasertib -0.142 | [5] 0.395 | [6] 0.57 | entospletinib 0.072

SAE1 (UniProt M0R286)
inactive: [1] -0.087 | [3] -0.366 | [4] -0.399 | entinostat -0.171 | silmitasertib 0.504 | [5] -0.065

SCAMP2 (UniProt H3BUB6)
inactive: [1] -0.31 | [2] -0.392 | [3] 0.021 | [4] -0.311 | entinostat -0.175 | citarinostat -0.364 | silmitasertib 0.129 | [5] -0.267 | [6] -0.118

RTCB (UniProt Q9Y3I0)
inactive: [1] 0 | [2] 0.023 | [3] -0.022 | [4] 0.031 | entinostat -0.049 | vorinostat 0.007 | citarinostat -0.012 | silmitasertib -0.003 | [5] 0.066 | [6] -0.007 | entospletinib 0.021
